Results are given in words; binding and its absence hold for the method and conditions named. Binding seen in cells or lysates may run through a third protein. Some results given as binding are weak or reduced against the parent protein; the word gives no strength.

The chains behind the UniProt entries cited, without tags or fusion partners.
UniProt Q9UKV8: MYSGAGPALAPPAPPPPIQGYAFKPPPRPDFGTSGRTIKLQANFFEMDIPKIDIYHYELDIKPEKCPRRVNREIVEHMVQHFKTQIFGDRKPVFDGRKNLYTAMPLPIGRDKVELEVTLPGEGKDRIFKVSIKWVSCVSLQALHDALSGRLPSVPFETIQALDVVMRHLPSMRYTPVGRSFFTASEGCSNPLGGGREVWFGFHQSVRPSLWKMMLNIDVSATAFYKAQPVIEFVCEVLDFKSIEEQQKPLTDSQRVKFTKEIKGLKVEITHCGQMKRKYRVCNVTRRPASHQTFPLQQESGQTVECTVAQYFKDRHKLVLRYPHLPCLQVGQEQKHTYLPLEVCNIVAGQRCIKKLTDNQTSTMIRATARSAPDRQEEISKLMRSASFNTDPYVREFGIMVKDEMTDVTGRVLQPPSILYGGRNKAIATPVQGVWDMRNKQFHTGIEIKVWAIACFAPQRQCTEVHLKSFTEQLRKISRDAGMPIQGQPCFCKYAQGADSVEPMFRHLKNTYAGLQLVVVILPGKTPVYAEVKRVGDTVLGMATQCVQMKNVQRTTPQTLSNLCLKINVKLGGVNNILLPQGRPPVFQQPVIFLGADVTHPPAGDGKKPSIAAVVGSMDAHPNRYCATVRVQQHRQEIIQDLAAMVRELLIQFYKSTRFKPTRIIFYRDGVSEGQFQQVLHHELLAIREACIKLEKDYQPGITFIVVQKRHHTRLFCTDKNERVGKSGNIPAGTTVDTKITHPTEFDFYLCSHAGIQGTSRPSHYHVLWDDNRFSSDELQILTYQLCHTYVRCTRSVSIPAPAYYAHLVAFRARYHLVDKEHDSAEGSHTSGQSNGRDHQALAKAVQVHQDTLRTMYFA

Results on 3 molecules are retold here after article PMC11022703.

For experiment [1], the target named is glutathione S‐transferase (GST)‐tagged AGO2 protein (human) (UniProt Q9UKV8). As to the kind of experiment: pull-down; purified bacterially expressed GST-AGO2 incubated with HeLa cell lysates; GST pull-down, TBK1 detected; only the target purified.
The target in experiment [2] is AGO2 (human (endogenous in HeLa)) (UniProt Q9UKV8). As to the kind of experiment: co-IP; HeLa cell lysates; reciprocal Co-IP with anti-TBK1 antibody (blot anti-AGO2) or anti-AGO2 antibody (blot anti-TBK1); endogenous proteins.
For experiment [3], the target named is Myc‐AGO2 (human) (UniProt Q9UKV8). Briefly: co-IP; HeLa cells transfected with Myc-AGO2, treated with LPS (1 µg/ml) for 12 h; IP with anti-Myc antibody, blot with pS172-TBK1 antibody.
Experiment [4] shares this target. As to the kind of experiment: co-IP; lysates from 293T cells transfected with Myc-AGO2, treated with RNase (100 ng/ml) for 30 min at 37 °C; IP with anti-Myc antibody, blot anti-TBK1.

B1: Tank‐binding kinase 1 (TBK1) (enzyme, UniProt Q9UHD2 1-729)
chain: MQSTSNHLWLLSDILGQGATANVFRGRHKKTGDLFAIKVFNNISFLRPVDVQMREFEVLKKLNHKNIVKLFAIEEETTTRHKVLIMEFCPCGSLYTVLEEPSNAYGLPESEFLIVLRDVVGGMNHLRENGIVHRDIKPGNIMRVIGEDGQSVYKLTDFGAARELEDDEQFVSLYGTEEYLHPDMYERAVLRKDHQKKYGATVDLWSIGVTFYHAATGSLPFRPFEGPRRNKEVMYKIITGKPSGAISGVQKAENGPIDWSGDMPVSCSLSRGLQVLLTPVLANILEADQEKCWGFDQFFAETSDILHRMVIHVFSLQQMTAHKIYIHSYNTATIFHELVYKQTKIISSNQELIYEGRRLVLEPGRLAQHFPKTTEENPIFVVSREPLNTIGLIYEKISLPKVHPRYDLDGDASMAKAITGVVCYACRIASTLLLYQELMRKGIRWLIELIKDDYNETVHKKTEVVITLDFCIRNIEKTVKVYEKLMKINLEAAELGEISDIHTKLLRLSSSQGTIETSLQDIDSRLSPGGSLADAWAHQEGTHPKDRNVEKLQVLLNCMTEIYYQFKKDKAERRLAYNEEQIHKFDKQKLYYHATKAMTHFTDECVKKYEAFLNKSEEWIRKMLHLRKQLLSLTNQCFDIEEEVSKYQEYTNELQETLPQKMFTASSGIKHTMTPIYPSSNTLVEMTLGMKKLKEEMEGVVKELAENNHILERFGSLTMDGGLRNVDCL
With B1, the binding result in experiment [1] and in experiment [2] was “binds” in each case.

B2: pS172‐TBK1 (enzyme, UniProt Q9UHD2 1-729)
chain: MQSTSNHLWLLSDILGQGATANVFRGRHKKTGDLFAIKVFNNISFLRPVDVQMREFEVLKKLNHKNIVKLFAIEEETTTRHKVLIMEFCPCGSLYTVLEEPSNAYGLPESEFLIVLRDVVGGMNHLRENGIVHRDIKPGNIMRVIGEDGQSVYKLTDFGAARELEDDEQFVSLYGTEEYLHPDMYERAVLRKDHQKKYGATVDLWSIGVTFYHAATGSLPFRPFEGPRRNKEVMYKIITGKPSGAISGVQKAENGPIDWSGDMPVSCSLSRGLQVLLTPVLANILEADQEKCWGFDQFFAETSDILHRMVIHVFSLQQMTAHKIYIHSYNTATIFHELVYKQTKIISSNQELIYEGRRLVLEPGRLAQHFPKTTEENPIFVVSREPLNTIGLIYEKISLPKVHPRYDLDGDASMAKAITGVVCYACRIASTLLLYQELMRKGIRWLIELIKDDYNETVHKKTEVVITLDFCIRNIEKTVKVYEKLMKINLEAAELGEISDIHTKLLRLSSSQGTIETSLQDIDSRLSPGGSLADAWAHQEGTHPKDRNVEKLQVLLNCMTEIYYQFKKDKAERRLAYNEEQIHKFDKQKLYYHATKAMTHFTDECVKKYEAFLNKSEEWIRKMLHLRKQLLSLTNQCFDIEEEVSKYQEYTNELQETLPQKMFTASSGIKHTMTPIYPSSNTLVEMTLGMKKLKEEMEGVVKELAENNHILERFGSLTMDGGLRNVDCL
modifications: phosphoserine at 172
Consider B2, for which the binding entry with Myc‐AGO2 (human) [3] was “binds”.

B3: TBK1 (enzyme, UniProt Q9UHD2 1-729)
chain: MQSTSNHLWLLSDILGQGATANVFRGRHKKTGDLFAIKVFNNISFLRPVDVQMREFEVLKKLNHKNIVKLFAIEEETTTRHKVLIMEFCPCGSLYTVLEEPSNAYGLPESEFLIVLRDVVGGMNHLRENGIVHRDIKPGNIMRVIGEDGQSVYKLTDFGAARELEDDEQFVSLYGTEEYLHPDMYERAVLRKDHQKKYGATVDLWSIGVTFYHAATGSLPFRPFEGPRRNKEVMYKIITGKPSGAISGVQKAENGPIDWSGDMPVSCSLSRGLQVLLTPVLANILEADQEKCWGFDQFFAETSDILHRMVIHVFSLQQMTAHKIYIHSYNTATIFHELVYKQTKIISSNQELIYEGRRLVLEPGRLAQHFPKTTEENPIFVVSREPLNTIGLIYEKISLPKVHPRYDLDGDASMAKAITGVVCYACRIASTLLLYQELMRKGIRWLIELIKDDYNETVHKKTEVVITLDFCIRNIEKTVKVYEKLMKINLEAAELGEISDIHTKLLRLSSSQGTIETSLQDIDSRLSPGGSLADAWAHQEGTHPKDRNVEKLQVLLNCMTEIYYQFKKDKAERRLAYNEEQIHKFDKQKLYYHATKAMTHFTDECVKKYEAFLNKSEEWIRKMLHLRKQLLSLTNQCFDIEEEVSKYQEYTNELQETLPQKMFTASSGIKHTMTPIYPSSNTLVEMTLGMKKLKEEMEGVVKELAENNHILERFGSLTMDGGLRNVDCL
B3: the binding entry with Myc‐AGO2 (human) [4] is reported as “binds”.
